In publication doi:10.1101/2022.12.21.521423 (bioRxiv, 2022):
These are yes or no findings as the source states them, for the method shown. Where a sequence is shown, tags or fusion partners need not be part of it.

By UniProt entry, the sequences of proteins in these tests, tags left out. Residues count along the entry.
UniProt Q96QE4, residues 28-905: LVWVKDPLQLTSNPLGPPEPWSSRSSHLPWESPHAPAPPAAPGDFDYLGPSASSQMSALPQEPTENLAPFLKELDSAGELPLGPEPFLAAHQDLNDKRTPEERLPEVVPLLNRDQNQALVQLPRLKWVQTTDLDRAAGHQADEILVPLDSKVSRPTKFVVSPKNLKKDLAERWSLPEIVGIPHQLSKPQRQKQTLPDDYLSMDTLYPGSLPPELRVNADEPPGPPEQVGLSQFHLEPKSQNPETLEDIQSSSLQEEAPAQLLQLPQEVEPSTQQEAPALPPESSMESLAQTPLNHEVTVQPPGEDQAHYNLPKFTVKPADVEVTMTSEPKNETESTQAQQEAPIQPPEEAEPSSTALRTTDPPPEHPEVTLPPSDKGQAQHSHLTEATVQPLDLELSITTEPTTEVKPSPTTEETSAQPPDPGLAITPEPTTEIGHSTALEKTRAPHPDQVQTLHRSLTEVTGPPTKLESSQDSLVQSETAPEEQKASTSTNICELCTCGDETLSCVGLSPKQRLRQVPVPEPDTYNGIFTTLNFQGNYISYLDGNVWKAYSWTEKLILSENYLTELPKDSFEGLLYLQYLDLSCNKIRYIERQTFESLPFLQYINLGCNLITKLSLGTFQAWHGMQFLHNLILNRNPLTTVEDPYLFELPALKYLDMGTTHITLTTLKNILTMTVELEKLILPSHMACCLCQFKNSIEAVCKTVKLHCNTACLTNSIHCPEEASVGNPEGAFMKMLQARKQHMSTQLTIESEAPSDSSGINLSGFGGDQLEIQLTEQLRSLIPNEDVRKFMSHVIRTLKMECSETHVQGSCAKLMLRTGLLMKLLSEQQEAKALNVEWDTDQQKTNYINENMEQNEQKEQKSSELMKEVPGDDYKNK
UniProt O75325, residues 19-630: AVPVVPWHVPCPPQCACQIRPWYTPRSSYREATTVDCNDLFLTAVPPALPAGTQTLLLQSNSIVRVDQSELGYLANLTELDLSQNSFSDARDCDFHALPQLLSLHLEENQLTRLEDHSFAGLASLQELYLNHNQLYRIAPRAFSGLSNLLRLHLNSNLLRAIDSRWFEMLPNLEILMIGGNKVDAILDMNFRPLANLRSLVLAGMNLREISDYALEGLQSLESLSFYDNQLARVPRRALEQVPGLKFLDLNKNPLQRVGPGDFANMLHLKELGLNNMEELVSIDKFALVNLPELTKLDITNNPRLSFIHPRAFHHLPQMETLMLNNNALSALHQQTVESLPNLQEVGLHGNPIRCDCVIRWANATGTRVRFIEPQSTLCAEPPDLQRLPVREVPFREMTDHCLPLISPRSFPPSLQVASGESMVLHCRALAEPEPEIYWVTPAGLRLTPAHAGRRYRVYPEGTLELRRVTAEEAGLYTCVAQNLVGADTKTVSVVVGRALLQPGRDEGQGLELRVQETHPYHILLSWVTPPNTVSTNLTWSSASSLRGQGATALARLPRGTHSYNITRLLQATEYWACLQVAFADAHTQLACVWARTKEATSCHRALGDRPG
UniProt Q8N608, residues 56-796: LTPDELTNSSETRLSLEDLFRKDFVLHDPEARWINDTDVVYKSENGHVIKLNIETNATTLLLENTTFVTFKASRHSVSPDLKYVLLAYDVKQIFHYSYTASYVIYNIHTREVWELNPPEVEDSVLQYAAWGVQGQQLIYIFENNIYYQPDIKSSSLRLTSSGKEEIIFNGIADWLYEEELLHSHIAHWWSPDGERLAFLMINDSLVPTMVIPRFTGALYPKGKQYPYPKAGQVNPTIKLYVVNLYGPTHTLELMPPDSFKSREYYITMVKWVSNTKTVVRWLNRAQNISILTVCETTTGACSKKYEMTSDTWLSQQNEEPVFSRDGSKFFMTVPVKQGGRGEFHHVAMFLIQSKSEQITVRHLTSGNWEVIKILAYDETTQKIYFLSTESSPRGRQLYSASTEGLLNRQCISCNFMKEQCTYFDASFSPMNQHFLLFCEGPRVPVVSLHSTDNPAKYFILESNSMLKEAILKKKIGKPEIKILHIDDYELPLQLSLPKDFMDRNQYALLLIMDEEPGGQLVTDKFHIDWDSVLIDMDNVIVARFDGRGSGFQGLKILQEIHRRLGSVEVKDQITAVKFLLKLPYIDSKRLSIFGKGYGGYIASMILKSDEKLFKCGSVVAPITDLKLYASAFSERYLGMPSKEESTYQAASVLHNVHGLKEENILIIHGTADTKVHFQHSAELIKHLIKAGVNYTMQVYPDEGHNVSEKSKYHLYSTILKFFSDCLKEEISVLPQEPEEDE
UniProt P55283, residues 170-734: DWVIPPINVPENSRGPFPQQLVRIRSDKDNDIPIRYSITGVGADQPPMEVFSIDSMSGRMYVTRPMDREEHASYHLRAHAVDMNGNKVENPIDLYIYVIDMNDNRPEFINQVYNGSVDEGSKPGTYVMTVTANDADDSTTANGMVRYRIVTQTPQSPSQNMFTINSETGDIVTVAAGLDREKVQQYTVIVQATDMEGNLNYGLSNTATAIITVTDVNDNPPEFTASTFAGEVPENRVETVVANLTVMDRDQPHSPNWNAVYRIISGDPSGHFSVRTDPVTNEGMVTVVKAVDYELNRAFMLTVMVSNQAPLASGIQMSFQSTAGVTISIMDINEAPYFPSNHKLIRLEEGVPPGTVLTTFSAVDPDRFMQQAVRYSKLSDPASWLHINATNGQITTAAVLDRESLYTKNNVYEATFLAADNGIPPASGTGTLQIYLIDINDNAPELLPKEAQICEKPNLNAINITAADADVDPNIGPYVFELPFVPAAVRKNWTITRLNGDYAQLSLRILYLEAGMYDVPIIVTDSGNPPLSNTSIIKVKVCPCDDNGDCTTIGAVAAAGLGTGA
UniProt Q6N022, residues 367-2769: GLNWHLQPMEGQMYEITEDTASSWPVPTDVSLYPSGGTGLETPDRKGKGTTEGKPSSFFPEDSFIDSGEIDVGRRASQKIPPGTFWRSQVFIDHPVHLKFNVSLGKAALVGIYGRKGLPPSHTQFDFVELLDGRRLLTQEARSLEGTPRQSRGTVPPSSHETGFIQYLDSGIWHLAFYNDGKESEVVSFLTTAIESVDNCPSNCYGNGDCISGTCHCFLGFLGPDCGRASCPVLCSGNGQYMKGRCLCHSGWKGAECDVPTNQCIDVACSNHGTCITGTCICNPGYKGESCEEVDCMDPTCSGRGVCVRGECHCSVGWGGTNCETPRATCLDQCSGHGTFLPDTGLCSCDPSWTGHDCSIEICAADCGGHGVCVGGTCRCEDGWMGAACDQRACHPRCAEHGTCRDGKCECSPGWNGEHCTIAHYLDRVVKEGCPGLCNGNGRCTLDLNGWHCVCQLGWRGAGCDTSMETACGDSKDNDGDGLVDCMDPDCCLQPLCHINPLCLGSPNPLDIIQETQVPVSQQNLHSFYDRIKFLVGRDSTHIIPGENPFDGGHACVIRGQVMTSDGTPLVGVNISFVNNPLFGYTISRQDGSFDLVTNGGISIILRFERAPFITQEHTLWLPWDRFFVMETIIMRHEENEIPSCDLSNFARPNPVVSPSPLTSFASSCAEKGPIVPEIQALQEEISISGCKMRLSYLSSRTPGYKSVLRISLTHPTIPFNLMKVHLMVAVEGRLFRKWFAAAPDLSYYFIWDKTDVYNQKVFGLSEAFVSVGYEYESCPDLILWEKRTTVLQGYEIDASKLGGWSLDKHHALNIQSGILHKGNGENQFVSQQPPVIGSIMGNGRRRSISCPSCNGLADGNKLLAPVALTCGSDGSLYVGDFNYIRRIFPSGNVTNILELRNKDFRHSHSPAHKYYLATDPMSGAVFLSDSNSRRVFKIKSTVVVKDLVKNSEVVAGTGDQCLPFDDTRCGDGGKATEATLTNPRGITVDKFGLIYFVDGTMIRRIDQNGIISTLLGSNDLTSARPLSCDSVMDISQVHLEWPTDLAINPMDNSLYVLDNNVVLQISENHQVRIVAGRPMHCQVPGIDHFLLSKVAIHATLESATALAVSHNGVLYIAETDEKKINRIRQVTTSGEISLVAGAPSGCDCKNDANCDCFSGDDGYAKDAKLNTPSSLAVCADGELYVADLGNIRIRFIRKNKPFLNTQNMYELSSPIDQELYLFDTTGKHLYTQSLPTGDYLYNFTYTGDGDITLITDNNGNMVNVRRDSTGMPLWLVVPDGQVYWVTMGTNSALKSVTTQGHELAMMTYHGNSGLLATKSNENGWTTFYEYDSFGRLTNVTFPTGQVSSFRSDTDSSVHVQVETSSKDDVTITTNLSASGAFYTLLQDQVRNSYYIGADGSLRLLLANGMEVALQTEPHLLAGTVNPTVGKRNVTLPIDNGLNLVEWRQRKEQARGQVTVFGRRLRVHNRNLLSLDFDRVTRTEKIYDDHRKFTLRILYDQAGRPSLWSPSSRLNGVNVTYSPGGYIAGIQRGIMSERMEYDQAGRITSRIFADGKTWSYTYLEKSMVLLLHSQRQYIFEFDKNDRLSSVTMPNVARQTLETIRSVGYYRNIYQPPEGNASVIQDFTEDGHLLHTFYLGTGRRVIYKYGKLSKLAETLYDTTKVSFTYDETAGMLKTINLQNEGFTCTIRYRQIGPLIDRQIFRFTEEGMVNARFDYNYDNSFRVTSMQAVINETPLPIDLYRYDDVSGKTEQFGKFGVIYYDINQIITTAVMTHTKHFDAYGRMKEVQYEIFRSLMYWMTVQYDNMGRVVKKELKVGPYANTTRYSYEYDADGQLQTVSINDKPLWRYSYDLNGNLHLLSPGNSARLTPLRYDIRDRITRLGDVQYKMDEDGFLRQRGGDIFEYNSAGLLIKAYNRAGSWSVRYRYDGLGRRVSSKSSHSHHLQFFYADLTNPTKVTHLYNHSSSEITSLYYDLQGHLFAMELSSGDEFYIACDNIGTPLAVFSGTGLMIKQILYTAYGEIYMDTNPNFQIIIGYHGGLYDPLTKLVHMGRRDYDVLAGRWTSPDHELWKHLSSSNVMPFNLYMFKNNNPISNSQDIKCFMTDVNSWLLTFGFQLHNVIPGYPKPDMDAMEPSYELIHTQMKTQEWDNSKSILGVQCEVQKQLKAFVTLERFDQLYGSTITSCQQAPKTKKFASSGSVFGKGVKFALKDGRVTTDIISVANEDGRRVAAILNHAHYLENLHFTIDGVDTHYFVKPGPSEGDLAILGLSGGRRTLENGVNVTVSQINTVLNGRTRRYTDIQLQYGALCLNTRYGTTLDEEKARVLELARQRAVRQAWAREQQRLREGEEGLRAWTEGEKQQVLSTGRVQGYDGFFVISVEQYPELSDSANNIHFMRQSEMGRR
UniProt Q9Y6N7, residues 26-897: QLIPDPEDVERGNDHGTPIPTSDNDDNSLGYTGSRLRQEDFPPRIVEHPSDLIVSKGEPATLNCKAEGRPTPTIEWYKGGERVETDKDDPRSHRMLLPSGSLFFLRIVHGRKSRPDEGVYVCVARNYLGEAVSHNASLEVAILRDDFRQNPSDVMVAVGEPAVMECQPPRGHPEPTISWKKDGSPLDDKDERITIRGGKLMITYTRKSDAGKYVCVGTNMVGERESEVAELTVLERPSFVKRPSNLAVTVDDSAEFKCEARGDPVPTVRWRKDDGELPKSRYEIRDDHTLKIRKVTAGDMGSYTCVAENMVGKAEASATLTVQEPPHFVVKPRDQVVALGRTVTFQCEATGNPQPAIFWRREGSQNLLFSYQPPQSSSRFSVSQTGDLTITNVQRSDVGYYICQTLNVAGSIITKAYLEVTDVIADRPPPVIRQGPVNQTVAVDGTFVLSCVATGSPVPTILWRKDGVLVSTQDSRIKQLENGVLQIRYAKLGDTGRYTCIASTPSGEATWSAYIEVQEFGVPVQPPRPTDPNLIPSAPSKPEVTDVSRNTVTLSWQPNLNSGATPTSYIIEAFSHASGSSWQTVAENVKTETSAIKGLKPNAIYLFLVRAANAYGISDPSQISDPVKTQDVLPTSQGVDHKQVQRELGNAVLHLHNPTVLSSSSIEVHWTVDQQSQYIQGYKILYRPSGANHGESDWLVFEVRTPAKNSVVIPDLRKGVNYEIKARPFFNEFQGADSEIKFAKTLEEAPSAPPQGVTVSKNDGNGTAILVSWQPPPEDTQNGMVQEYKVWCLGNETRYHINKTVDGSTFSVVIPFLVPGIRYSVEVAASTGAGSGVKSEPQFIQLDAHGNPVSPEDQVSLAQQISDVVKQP
UniProt Q8IZJ1, residues 27-377: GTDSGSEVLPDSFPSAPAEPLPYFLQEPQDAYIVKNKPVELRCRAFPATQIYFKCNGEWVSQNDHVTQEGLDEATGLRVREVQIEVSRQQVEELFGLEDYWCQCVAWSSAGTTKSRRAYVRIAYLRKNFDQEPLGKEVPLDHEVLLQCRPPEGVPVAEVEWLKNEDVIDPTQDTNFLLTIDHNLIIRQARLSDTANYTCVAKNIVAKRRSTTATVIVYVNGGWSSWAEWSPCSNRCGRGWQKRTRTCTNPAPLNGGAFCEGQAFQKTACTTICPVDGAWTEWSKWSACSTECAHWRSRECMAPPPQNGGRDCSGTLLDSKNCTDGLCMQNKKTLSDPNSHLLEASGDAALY

B1: ALCAM ectodomain fused to an Fc domain (Fc fusion, UniProt Q13740 28-527)
chain: WYTVNSAYGDTIIIPCRLDVPQNLMFGKWKYEKPDGSPVFIAFRSSTKKSVQYDDVPEYKDRLNLSENYTLSISNARISDEKRFVCMLVTEDNVFEAPTIVKVFKQPSKPEIVSKALFLETEQLKKLGDCISEDSYPDGNITWYRNGKVLHPLEGAVVIIFKKEMDPVTQLYTMTSTLEYKTTKADIQMPFTCSVTYYGPSGQKTIHSEQAVFDIYYPTEQVTIQVLPPKNAIKEGDNITLKCLGNGNPPPEEFLFYLPGQPEGIRSSNTYTLTDVRRNATGDYKCSLIDKKSMIASTAITVHYLDLSLNPSGEVTRQIGDALPVSCTISASRNATVVWMKDNIRLRSSPSFSSLHYQDAGNYVCETALQEVEGLKKRESLTLIVEGKPQIKMTKKTDPSGLSKTIICHVEGFPKPAIQWTITGSGSVINQTEESPYINGRYYSKIIISPEENVTLTCTAENQLERTVNSLNVSAISIPEHDEADEISDENREKVNDQAK
B2: CDH6 ectodomain fused to an Fc domain (Fc fusion, UniProt P55285 54-615)
chain: SWMWNQFFLLEEYTGSDYQYVGKLHSDQDRGDGSLKYILSGDGAGDLFIINENTGDIQATKRLDREEKPVYILRAQAINRRTGRPVEPESEFIIKIHDINDNEPIFTKEVYTATVPEMSDVGTFVVQVTATDADDPTYGNSAKVVYSILQGQPYFSVESETGIIKTALLNMDRENREQYQVVIQAKDMGGQMGGLSGTTTVNITLTDVNDNPPRFPQSTYQFKTPESSPPGTPIGRIKASDADVGENAEIEYSITDGEGLDMFDVITDQETQEGIITVKKLLDFEKKKVYTLKVEASNPYVEPRFLYLGPFKDSATVRIVVEDVDEPPVFSKLAYILQIREDAQINTTIGSVTAQDPDAARNPVKYSVDRHTDMDRIFNIDSGNGSIFTSKLLDRETLLWHNITVIATEINNPKQSSRVPLYIKVLDVNDNAPEFAEFYETFVCEKAKADQLIQTLHAVDKDDPYSGHQFSFSLAPEAASGSNFTIQDNKDNTAGILTRKNGYNRHEMSTYLLPVVISDNDYPVQSSTGTVTVRVCACDHHGNMQSCHAEALIHPTGLSTGA
B3: CDH11 ectodomain fused to an Fc domain (Fc fusion, UniProt P55287 54-617)
chain: GWVWNQFFVIEEYTGPDPVLVGRLHSDIDSGDGNIKYILSGEGAGTIFVIDDKSGNIHATKTLDREERAQYTLMAQAVDRDTNRPLEPPSEFIVKVQDINDNPPEFLHETYHANVPERSNVGTSVIQVTASDADDPTYGNSAKLVYSILEGQPYFSVEAQTGIIRTALPNMDREAKEEYHVVIQAKDMGGHMGGLSGTTKVTITLTDVNDNPPKFPQSVYQMSVSEAAVPGEEVGRVKAKDPDIGENGLVTYNIVDGDGMESFEITTDYETQEGVIKLKKPVDFETKRAYSLKVEAANVHIDPKFISNGPFKDTVTVKISVEDADEPPMFLAPSYIHEVQENAAAGTVVGRVHAKDPDAANSPIRYSIDRHTDLDRFFTINPEDGFIKTTKPLDREETAWLNITVFAAEIHNRHQEAKVPVAIRVLDVNDNAPKFAAPYEGFICESDQTKPLSNQPIVTISADDKDDTANGPRFIFSLPPEIIHNPNFTVRDNRDNTAGVYARRGGFSRQKQDLYLLPIVISDGGIPPMSSTNTLTIKVCGCDVNGALLSCNAEAYILNAGLST
B4: ITGA6 ectodomain fused to an Fc domain (Fc fusion, UniProt P23229 24-1050)
chain: FNLDTREDNVIRKYGDPGSLFGFSLAMHWQLQPEDKRLLLVGAPRAEALPLQRANRTGGLYSCDITARGPCTRIEFDNDADPTSESKEDQWMGVTVQSQGPGGKVVTCAHRYEKRQHVNTKQESRDIFGRCYVLSQNLRIEDDMDGGDWSFCDGRLRGHEKFGSCQQGVAATFTKDFHYIVFGAPGTYNWKGIVRVEQKNNTFFDMNIFEDGPYEVGGETEHDESLVPVPANSYLGLLFLTSVSYTDPDQFVYKTRPPREQPDTFPDVMMNSYLGFSLDSGKGIVSKDEITFVSGAPRANHSGAVVLLKRDMKSAHLLPEHIFDGEGLASSFGYDVAVVDLNKDGWQDIVIGAPQYFDRDGEVGGAVYVYMNQQGRWNNVKPIRLNGTKDSMFGIAVKNIGDINQDGYPDIAVGAPYDDLGKVFIYHGSANGINTKPTQVLKGISPYFGYSIAGNMDLDRNSYPDVAVGSLSDSVTIFRSRPVINIQKTITVTPNRIDLRQKTACGAPSGICLQVKSCFEYTANPAGYNPSISIVGTLEAEKERRKSGLSSRVQFRNQGSEPKYTQELTLKRQKQKVCMEETLWLQDNIRDKLRPIPITASVEIQEPSSRRRVNSLPEVLPILNSDEPKTAHIDVHFLKEGCGDDNVCNSNLKLEYKFCTREGNQDKFSYLPIQKGVPELVLKDQKDIALEITVTNSPSNPRNPTKDGDDAHEAKLIATFPDTLTYSAYRELRAFPEKQLSCVANQNGSQADCELGNPFKRNSNVTFYLVLSTTEVTFDTPDLDINLKLETTSNQDNLAPITAKAKVVIELLLSVSGVAKPSQVYFGGTVVGEQAMKSEDEVGSLIEYEFRVINLGKPLTNLGTATLNIQWPKEISNGKWLLYLVKVESKGLEKVTCEPQKEINSLNLTESHNSRKKREITEKQIDDNRKFSLFAERKYQTLNCSVNVNCVNIRCPLRGLDSKASLILRSRLWNSTFLEEYSKLNYLDILMRAFIDVTAAAENIRLPNAGTQVRVTVFPSKTVAQYS

Target: LRRC37B_ECTO fused with alkaline phosphatase (human) (UniProt Q96QE4)
Assay: ELISA

Molecule | binding
LRRN1 ectodomain fused to an Fc domain (from UniProt Q6UXK5 26-631) (Fc fusion) | no binding
LRRN2 ectodomain fused to an Fc domain (from UniProt O75325 19-630) (Fc fusion) | no binding
ITGAV ectodomain fused to an Fc domain (from UniProt P06756 31-992) (Fc fusion) | no binding
DPP10 ectodomain fused to an Fc domain (from UniProt Q8N608 56-796) (Fc fusion) | no binding
CDH4 ectodomain fused to an Fc domain (from UniProt P55283 170-734) (Fc fusion) | no binding
TENM4 ectodomain fused to an Fc domain (from UniProt Q6N022 367-2769) (Fc fusion) | no binding
SGCD ectodomain fused to an Fc domain (from UniProt Q92629 57-289) (Fc fusion) | no binding
CNTNAP5 ectodomain fused to an Fc domain (from UniProt Q8WYK1 25-1237) (Fc fusion) | no binding
ROBO1 ectodomain fused to an Fc domain (from UniProt Q9Y6N7 26-897) (Fc fusion) | no binding
THSD7A ectodomain fused to an Fc domain (from UniProt Q9UPZ6 48-1607) (Fc fusion) | no binding
UNC5B ectodomain fused to an Fc domain (from UniProt Q8IZJ1 27-377) (Fc fusion) | no binding
B1 | no binding
B2 | no binding
B3 | no binding
B4 | no binding
